Measurements published in the supplement of paper PMC10849652.
Some of the results follow. Residues, ends and D or L forms follow the SMILES beside them. *: point of attachment. Cbz = O=C(OCc1ccccc1)*

Protein sequences, listed by entry. Tags and fused reporters are not part of them. Lines headed by an entry give the natural chain unless they say otherwise; changes in a name come on top.
UniProt P20674, whole entry, looked up: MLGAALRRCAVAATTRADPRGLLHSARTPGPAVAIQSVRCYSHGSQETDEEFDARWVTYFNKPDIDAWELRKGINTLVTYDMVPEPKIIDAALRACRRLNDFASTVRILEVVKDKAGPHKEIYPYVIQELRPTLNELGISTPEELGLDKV
UniProt P55060: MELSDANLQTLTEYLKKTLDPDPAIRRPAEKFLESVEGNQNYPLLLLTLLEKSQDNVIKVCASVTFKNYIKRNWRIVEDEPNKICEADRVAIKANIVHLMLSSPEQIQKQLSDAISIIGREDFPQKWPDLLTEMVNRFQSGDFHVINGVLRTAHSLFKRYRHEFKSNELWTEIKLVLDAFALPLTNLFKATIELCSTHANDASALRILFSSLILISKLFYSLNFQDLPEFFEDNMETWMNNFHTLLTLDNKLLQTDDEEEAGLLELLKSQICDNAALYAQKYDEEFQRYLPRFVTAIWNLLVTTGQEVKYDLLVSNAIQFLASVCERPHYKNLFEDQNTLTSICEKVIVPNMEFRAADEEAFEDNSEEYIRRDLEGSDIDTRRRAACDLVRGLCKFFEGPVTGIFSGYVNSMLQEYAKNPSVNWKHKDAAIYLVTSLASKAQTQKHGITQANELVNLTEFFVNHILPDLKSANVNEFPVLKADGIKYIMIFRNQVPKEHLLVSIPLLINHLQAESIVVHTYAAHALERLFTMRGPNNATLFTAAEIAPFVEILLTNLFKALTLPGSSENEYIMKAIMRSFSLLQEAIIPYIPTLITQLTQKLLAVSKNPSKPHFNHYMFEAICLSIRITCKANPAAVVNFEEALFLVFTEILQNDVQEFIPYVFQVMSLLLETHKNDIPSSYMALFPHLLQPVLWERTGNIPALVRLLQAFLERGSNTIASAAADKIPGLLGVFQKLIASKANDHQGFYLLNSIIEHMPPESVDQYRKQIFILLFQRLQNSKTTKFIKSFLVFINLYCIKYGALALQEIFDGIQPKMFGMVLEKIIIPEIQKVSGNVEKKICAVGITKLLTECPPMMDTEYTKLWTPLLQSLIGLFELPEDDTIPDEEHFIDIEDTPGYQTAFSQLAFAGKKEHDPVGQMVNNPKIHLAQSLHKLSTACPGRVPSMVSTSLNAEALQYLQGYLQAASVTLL
UniProt Q86VU5: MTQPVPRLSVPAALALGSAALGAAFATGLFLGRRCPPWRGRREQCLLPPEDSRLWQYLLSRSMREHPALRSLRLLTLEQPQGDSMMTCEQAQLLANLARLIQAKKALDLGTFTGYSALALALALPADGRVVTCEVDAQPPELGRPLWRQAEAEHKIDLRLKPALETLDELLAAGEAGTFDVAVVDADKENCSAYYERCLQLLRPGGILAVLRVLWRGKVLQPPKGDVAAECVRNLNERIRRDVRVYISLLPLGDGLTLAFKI
UniProt Q9UBW8: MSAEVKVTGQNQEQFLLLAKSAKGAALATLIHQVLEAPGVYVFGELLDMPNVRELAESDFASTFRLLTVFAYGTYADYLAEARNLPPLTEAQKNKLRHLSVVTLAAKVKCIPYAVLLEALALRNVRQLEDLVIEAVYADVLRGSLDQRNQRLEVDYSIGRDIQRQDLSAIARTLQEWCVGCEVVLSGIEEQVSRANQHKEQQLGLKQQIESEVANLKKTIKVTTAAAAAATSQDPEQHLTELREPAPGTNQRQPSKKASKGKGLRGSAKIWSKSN
UniProt P46108: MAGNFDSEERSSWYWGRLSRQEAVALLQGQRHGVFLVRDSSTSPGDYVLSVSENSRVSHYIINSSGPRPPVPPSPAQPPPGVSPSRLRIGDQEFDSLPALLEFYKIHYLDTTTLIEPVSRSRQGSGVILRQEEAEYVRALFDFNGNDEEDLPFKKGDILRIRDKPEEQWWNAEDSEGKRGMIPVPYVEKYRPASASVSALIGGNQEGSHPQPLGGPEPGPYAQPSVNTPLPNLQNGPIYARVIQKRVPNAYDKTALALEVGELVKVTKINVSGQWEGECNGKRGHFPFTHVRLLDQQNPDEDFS
UniProt Q8IYK4: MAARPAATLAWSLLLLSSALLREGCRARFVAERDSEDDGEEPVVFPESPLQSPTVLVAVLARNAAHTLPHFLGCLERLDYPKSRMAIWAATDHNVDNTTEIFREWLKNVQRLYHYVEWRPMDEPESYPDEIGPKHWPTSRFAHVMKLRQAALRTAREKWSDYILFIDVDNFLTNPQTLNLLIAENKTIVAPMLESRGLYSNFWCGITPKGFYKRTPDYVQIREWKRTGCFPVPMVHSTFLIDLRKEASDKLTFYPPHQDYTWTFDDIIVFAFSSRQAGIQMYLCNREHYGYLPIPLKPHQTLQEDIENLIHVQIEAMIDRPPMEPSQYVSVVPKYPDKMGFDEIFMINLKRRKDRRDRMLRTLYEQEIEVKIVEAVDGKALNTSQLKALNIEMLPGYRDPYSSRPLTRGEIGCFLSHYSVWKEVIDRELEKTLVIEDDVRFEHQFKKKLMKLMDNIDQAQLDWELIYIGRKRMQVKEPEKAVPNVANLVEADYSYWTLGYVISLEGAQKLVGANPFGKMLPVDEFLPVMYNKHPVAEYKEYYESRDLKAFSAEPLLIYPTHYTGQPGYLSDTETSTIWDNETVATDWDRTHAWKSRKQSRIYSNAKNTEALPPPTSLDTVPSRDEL
UniProt Q96FN4: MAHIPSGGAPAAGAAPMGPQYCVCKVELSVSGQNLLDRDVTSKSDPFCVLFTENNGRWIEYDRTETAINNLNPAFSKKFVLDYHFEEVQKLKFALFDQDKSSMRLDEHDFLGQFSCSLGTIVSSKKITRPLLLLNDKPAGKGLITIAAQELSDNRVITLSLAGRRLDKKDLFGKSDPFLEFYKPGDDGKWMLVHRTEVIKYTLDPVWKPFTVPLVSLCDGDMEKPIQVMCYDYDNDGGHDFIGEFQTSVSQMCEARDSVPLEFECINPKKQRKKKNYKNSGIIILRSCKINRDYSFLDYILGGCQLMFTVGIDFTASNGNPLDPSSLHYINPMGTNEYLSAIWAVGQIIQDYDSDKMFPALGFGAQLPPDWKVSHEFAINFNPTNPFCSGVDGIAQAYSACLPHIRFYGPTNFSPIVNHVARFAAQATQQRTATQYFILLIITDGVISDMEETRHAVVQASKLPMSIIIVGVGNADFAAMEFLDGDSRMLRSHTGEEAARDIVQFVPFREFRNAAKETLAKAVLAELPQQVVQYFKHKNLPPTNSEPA
UniProt Q9Y6M4: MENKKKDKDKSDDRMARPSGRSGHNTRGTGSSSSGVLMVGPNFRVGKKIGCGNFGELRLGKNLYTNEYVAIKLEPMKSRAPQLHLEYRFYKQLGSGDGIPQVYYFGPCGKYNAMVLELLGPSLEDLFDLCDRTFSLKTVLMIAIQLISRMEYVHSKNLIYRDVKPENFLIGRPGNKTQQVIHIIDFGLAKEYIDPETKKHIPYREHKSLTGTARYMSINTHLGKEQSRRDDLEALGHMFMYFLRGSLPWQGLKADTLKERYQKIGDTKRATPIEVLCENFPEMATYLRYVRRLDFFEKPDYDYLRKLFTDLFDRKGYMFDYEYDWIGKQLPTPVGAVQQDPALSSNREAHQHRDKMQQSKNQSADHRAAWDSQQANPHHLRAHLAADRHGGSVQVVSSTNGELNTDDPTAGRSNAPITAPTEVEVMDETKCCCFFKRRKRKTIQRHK
UniProt Q9BSW2: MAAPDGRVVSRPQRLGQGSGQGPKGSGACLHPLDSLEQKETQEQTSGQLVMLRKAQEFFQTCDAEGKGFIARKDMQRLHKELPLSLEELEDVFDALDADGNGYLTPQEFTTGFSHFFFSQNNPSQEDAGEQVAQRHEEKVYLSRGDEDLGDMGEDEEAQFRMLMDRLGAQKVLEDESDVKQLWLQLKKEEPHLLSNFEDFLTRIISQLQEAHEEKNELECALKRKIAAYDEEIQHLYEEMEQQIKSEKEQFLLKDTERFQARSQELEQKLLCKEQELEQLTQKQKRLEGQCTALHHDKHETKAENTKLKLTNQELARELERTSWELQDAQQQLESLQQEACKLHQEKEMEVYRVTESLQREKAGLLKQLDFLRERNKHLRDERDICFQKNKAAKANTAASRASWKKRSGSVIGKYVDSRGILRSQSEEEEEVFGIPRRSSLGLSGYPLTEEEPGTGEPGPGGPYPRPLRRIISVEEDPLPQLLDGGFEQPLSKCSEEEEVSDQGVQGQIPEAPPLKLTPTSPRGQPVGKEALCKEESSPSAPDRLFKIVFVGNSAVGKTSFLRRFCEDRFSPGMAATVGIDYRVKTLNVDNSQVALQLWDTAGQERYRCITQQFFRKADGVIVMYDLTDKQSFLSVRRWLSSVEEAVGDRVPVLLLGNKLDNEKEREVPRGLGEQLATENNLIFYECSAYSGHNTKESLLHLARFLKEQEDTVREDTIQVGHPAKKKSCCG
UniProt O14579: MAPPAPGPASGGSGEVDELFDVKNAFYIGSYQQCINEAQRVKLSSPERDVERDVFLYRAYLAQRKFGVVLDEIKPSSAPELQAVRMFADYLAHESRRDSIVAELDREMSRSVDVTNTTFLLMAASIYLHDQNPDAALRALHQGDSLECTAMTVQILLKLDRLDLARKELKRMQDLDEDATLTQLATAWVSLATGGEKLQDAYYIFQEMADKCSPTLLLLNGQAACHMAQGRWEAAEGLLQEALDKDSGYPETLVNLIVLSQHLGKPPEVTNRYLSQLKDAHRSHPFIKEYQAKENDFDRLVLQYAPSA
UniProt P48729: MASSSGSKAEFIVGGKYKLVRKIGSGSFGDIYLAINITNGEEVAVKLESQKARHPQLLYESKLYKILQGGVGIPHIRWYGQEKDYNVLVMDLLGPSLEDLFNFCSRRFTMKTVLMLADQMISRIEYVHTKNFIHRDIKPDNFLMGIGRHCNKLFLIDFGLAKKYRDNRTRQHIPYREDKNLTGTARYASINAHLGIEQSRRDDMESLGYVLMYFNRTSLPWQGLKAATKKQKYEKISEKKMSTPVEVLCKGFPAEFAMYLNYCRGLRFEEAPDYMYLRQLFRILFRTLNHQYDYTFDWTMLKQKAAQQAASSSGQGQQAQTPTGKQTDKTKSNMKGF
UniProt P16220: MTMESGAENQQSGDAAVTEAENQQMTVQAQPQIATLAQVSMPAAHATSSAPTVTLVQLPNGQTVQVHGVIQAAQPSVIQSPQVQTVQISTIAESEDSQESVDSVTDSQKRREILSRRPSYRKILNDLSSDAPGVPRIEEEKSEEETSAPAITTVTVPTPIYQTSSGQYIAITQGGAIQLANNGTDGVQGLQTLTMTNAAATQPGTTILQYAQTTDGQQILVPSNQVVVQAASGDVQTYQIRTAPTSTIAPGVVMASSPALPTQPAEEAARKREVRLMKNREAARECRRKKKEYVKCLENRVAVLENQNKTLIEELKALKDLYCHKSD
UniProt Q6UXH1: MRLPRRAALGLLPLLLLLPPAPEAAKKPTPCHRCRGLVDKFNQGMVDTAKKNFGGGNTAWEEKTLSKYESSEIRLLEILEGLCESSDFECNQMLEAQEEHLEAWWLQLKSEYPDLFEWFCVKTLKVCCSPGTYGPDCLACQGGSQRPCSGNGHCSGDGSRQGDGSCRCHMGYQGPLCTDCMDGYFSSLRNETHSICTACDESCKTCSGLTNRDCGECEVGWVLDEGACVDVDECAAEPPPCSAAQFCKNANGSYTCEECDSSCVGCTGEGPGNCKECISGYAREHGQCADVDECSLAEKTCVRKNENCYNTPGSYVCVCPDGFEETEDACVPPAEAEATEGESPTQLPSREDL
UniProt P14406, whole entry, looked up: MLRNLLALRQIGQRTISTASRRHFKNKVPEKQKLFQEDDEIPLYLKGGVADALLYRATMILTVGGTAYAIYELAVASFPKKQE
UniProt P36551: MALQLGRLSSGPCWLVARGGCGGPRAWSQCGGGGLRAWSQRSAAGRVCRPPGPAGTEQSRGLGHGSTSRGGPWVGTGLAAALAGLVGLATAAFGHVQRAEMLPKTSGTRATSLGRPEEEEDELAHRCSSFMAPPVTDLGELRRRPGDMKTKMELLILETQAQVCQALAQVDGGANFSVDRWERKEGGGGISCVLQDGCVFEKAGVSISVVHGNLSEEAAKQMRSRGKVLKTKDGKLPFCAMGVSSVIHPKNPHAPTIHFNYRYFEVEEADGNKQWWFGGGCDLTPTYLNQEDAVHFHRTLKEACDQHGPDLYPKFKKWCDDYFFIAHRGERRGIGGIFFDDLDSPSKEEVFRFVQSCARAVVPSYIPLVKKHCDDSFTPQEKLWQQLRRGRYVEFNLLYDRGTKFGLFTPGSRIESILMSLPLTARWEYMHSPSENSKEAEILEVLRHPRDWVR
UniProt P78560: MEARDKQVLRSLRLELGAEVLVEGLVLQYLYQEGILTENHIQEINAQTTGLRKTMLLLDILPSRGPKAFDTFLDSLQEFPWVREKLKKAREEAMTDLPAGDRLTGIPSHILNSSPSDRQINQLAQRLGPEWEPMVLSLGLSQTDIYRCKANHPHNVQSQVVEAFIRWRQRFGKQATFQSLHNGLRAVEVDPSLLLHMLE

What was measured:
Assay in all cases: log2 fold change, soluble protein after heating vs DMSO (PISA); higher = thermal stabilisation; K562 cells, 10 uM, 30 min; active = over 0.2 and 3.5 SD of the protein, either way, in both replicates (recomputed)
[1] = compound: C#Cc1cccc(Nc2ncnc3cc(OCCOC)c(OCCOC)cc23)c1 [erlotinib]
Outline: (§1)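 Aliquots of K562 cells (2×10^6 cells/mL) treated with 10 μM compound for 30 min were heated for 3 min over 48°C-58°C. After pooling and extraction in PBS with 0.5% NP-40 at 4°C, soluble protein from a 21,000xg, 90 min spin was quantified by TMTpro 16plex LC-MS/MS with channel sums equalised. Thermal stability is expressed against control samples, from duplicates, as a log2 fold change.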

[2] = compound: C/C(=N\NC(=O)C1=CC(=CC=C1)S(=O)(=O)N2CCOCC2)/C3=C(C=CC(=C3)Cl)O
Outline: as §1

[3] = compound: C1=CC(=C(C=C1Cl)C2=NC3=NC=CN=C3C(=N2)NC4=CC=NC=C4)F
Outline: as §1

[4] = compound: C1=CC(=CC=C1C2=NC3=C(N2)C=C(C=C3)C(=O)N)OC4=CC=C(C=C4)Cl
Outline: as §1

[5] = compound: C1=CC2=C(C=CC(=C2)/C=C\3/C(=O)NC(=NCC4=CC=CS4)S3)N=C1
Outline: as §1

[6] = compound: C1=CC2=NC=CN=C2C=C1/C=C/3\C(=O)NC(=O)S3
Outline: as §1

[7] = compound: C1=CC=C(C=C1)C2=NC(=C(N2)C3=CC=NC=C3)C4=CC(=C(C=C4)Cl)O
Outline: as §1

[8] = compound: C1=CC=C2C(=C1)C3=NNC4=CC=CC(=C43)C2=O
Outline: as §1

[9] = compound: C1CCN(C1)C(=O)NC2=CC=CC(=C2)NC3=NC=C(C(=N3)NCCC4=CN=CN4)Br
Outline: as §1

[10] = compound: C1CN(CCC1(CC2=CC=C(C=C2)Cl)N)C3=NC=NC4=C3C=CN4
Outline: as §1

[11] = compound: C1COCCN1CCN2C3=CC=CC=C3N=C2NC(=O)C4=CC(=CC=C4)[N+](=O)[O-] [IRAK-1-4 Inhibitor I]
Outline: as §1

[12] = compound: C=CC(=O)N1CCC[C@@H](n2nc(-c3ccc(Oc4ccccc4)cc3)c3c(N)ncnc32)C1 [ibrutinib]
Outline: as §1

[13] = compound: CC(=O)c1cnc2ccc(-c3cc(Cl)c(O)c(Cl)c3)nc2c1N[C@H]1CC[C@H](CN(C)C)CC1
Outline: as §1

[14] = compound: CC(C)(C)Cn1c(N)nc2ccc(-c3[nH]c(C(C)(C)C)nc3-c3ccc(F)cc3)nc21 [ralimetinib]
Outline: as §1

[15] = compound: CC(C)(O)CC(=O)NCCn1ccc2ncnc(Nc3ccc(Oc4cccc(C(F)(F)F)c4)c(Cl)c3)c21
Outline: as §1

[16] = compound: CC(C)C1=C2N=C(C=C(N2N=C1)NCC3=CC=CC=C3)NCCCCCCN
Outline: as §1

[17] = compound: CC(C)C[C@@H](C=O)NC(=O)[C@H](CC(C)C)NC(=O)[C@H](CC(C)C)NC(=O)OCc1ccccc1
Outline: as §1

[18] = compound: CC(C)N(C[C@H]1O[C@@H](n2cnc3c(N)ncnc32)[C@H](O)[C@@H]1O)[C@H]1C[C@@H](CCc2nc3cc(C(C)(C)C)ccc3[nH]2)C1 [pinometostat]
Outline: as §1

[19] = compound: CC1=C(C2=C(C=C1)C(=O)C3=CC=CC=C3N2CCCN)C
Outline: as §1

[20] = compound: CC1=C(C(CC(=O)N1)C2=CC=C(C=C2)C(F)(F)F)C(=O)NC3=C(C=C4C(=C3)C=NN4)F
Outline: as §1

Measured: log2 fold change

COX5A (UniProt P20674)
inactive: [1] -0.005 | [2] -0.05 | [3] 0.104 | [4] 0.052 | [5] 0.045 | [6] 0.016 | [7] 0.183 | [8] 0.051 | [9] -0.026 | [10] -0.081 | [11] 0.041 | [12] 0.008 | [13] -0.09 | [14] -0.053 | [15] -0.103 | [16] 0.058 | [17] -0.069 | [18] -0.042 | [19] 0.122

CSE1L (UniProt P55060)
inactive: [1] -0.005 | [2] 0.056 | [3] 0.064 | [4] -0.033 | [5] 0 | [6] 0.052 | [7] 0.012 | [8] -0.044 | [9] 0.028 | [10] -0.04 | [11] 0.001 | [12] -0.028 | [13] 0.033 | [14] -0.011 | [15] -0.144 | [16] -0.145 | [17] -0.029 | [18] -0.027 | [19] -0.02

COMTD1 (UniProt Q86VU5)
inactive: [1] 0.016 | [2] 0.041 | [3] 0.014 | [4] 0.029 | [5] 0.053 | [6] 0.028 | [7] 0.038 | [8] -0.052 | [9] 0.038 | [10] 0.019 | [11] -0.02 | [12] -0.03 | [13] 0.001 | [14] -0.033 | [15] -0.155 | [16] 0.067 | [17] -0.01 | [18] -0.072 | [20] 0 | [19] 0.122

COPS7A (UniProt Q9UBW8)
inactive: [1] -0.008 | [2] -0.015 | [3] 0.03 | [4] -0.035 | [5] 0.037 | [6] 0.02 | [7] 0.014 | [8] 0 | [9] 0.009 | [10] 0.031 | [11] 0.055 | [12] 0.018 | [13] -0.023 | [14] -0.032 | [15] -0.06 | [16] 0.004 | [17] -0.002 | [18] -0.003 | [20] 0.002 | [19] -0.023

CRK (UniProt P46108)
active: [13] -0.887
inactive: [1] -0.022 | [2] 0.035 | [3] -0.002 | [4] -0.012 | [5] -0.011 | [6] 0.03 | [7] -0.076 | [8] 0.049 | [9] 0.016 | [10] 0.001 | [11] -0.046 | [12] -0.097 | [14] -0.013 | [15] -0.007 | [16] -0.003 | [17] 0.032 | [18] -0.037 | [19] 0.07

COLGALT2 (UniProt Q8IYK4)
inactive: [1] -0.098 | [2] -0.06 | [3] -0.086 | [4] 0.072 | [5] -0.036 | [6] -0.004 | [7] -0.045 | [8] 0.028 | [9] -0.01 | [10] -0.056 | [11] -0.103 | [12] -0.038 | [13] 0.02 | [14] 0.024 | [15] 0.037 | [16] -0.036 | [17] 0.041 | [18] 0.038 | [20] 0.023 | [19] -0.044

CPNE2 (UniProt Q96FN4)
inactive: [1] -0.156 | [2] -0.072 | [3] -0.03 | [4] -0.229 | [5] -0.108 | [6] 0.109 | [7] -0.075 | [8] 0.075 | [9] 0.124 | [10] -0.095 | [11] 0.057 | [12] -0.029 | [13] 0.187 | [14] -0.031 | [15] -0.095 | [16] -0.127 | [17] 0.009 | [18] 0.08 | [20] 0.016 | [19] 0.076

CSNK1G3 (UniProt Q9Y6M4)
inactive: [1] 0.021 | [2] -0.102 | [3] -0.164 | [4] 0.01 | [5] -0.03 | [6] 0.073 | [7] 0.079 | [8] -0.028 | [9] -0.044 | [10] -0.078 | [11] -0.183 | [12] -0.051 | [13] 0.062 | [14] 0.137 | [15] -0.001 | [16] -0.239 | [17] 0.073 | [18] 0.023 | [20] 0.026 | [19] 0.066

CRACR2A isoform 2 (UniProt Q9BSW2)
inactive: [1] 0.165 | [2] -0.004 | [3] 0.108 | [4] -0.135 | [5] -0.019 | [6] -0.009 | [7] 0.029 | [8] 0.038 | [9] -0.039 | [10] 0.007 | [11] 0.012 | [12] 0.002 | [13] -0.015 | [14] 0.009 | [15] 0.045 | [16] 0.153 | [17] 0.037 | [18] -0.005 | [20] -0.013 | [19] 0.111

COPE (UniProt O14579)
inactive: [1] -0.037 | [2] 0.016 | [3] 0.07 | [4] 0 | [5] 0.051 | [6] 0.015 | [7] -0.037 | [8] -0.002 | [9] 0.086 | [10] -0.012 | [11] -0.017 | [12] -0.058 | [13] -0.054 | [14] -0.062 | [15] -0.027 | [16] 0.069 | [17] -0.01 | [18] -0.026 | [20] -0.01 | [19] -0.155

CSNK1A1 (UniProt P48729)
inactive: [1] 0.073 | [2] 0.002 | [3] -0.028 | [4] -0.002 | [5] -0.008 | [6] 0.018 | [7] -0.029 | [8] -0.088 | [9] 0.001 | [10] -0.064 | [11] -0.016 | [12] 0.015 | [13] -0.053 | [14] 0.026 | [15] -0.041 | [17] 0.145 | [18] 0.112 | [19] 0.028
active: [16] -0.25

CREB1 (UniProt P16220)
inactive: [1] -0.082 | [2] 0.025 | [3] -0.033 | [4] 0.002 | [5] 0.037 | [6] -0.028 | [7] -0.039 | [8] 0.005 | [9] 0.011 | [10] -0.137 | [11] 0.024 | [12] 0 | [13] -0.08 | [14] -0.036 | [15] 0.053 | [16] 0.008 | [17] 0.009 | [18] -0.026 | [20] -0.006 | [19] 0.098

CRELD2 isoform 5 (UniProt Q6UXH1)
inactive: [1] 0.026 | [2] -0.06 | [3] 0.099 | [4] 0.012 | [5] -0.083 | [6] 0.053 | [7] -0.043 | [8] -0.039 | [9] 0.044 | [10] 0.055 | [11] 0.029 | [12] 0.026 | [13] 0.024 | [14] -0.043 | [15] 0.097 | [16] 0.099 | [17] -0.007 | [18] -0.009 | [20] 0.087 | [19] -0.054

Fetched one by one from the entries so far, 2 records:
COLGALT2 (UniProt Q8IYK4)
inactive: [1] -0.098 | [2] -0.06 | [3] -0.086 | [4] 0.072 | [5] -0.036 | [6] -0.004 | [7] -0.045 | [8] 0.028 | [9] -0.01 | [10] -0.056 | [11] -0.103 | [12] -0.038 | [13] 0.02 | [14] 0.024 | [15] 0.037 | [16] -0.036 | [17] 0.041 | [18] 0.038 | [20] 0.023 | [19] -0.044

CSNK1G3 (UniProt Q9Y6M4)
inactive: [1] 0.021 | [2] -0.102 | [3] -0.164 | [4] 0.01 | [5] -0.03 | [6] 0.073 | [7] 0.079 | [8] -0.028 | [9] -0.044 | [10] -0.078 | [11] -0.183 | [12] -0.051 | [13] 0.062 | [14] 0.137 | [15] -0.001 | [16] -0.239 | [17] 0.073 | [18] 0.023 | [20] 0.026 | [19] 0.066

Following part

COX7A2 (UniProt P14406)
inactive: [1] 0.004 | [2] -0.029 | [3] 0.119 | [4] -0.027 | [5] 0.121 | [6] 0.056 | [7] 0.004 | [8] -0.018 | [9] -0.012 | [10] 0.044 | [11] 0.018 | [12] 0.034 | [13] -0.031 | [14] -0.094 | [15] -0.015 | [16] -0.047 | [17] -0.02 | [18] 0.057 | [20] -0.011 | [19] 0.095

CPOX (UniProt P36551)
inactive: [1] 0.031 | [2] 0.023 | [3] 0.033 | [4] -0.007 | [5] 0.002 | [6] 0.016 | [7] 0.017 | [8] -0.023 | [9] -0.008 | [10] 0.041 | [11] 0.01 | [12] -0.001 | [13] 0.083 | [14] -0.012 | [15] 0 | [16] 0.024 | [17] -0.044 | [18] -0.105 | [20] -0.007 | [19] 0.011

CRADD (UniProt P78560)
inactive: [1] -0.036 | [2] 0.113 | [4] 0.032 | [5] 0.122 | [8] 0 | [9] -0.139 | [10] -0.232 | [11] 0.152 | [13] -0.041 | [16] -0.113 | [18] 0.141 | [19] -0.156
